Measured values from patent publication US20210403541A1.
No constants are given. Whether binding was seen depends on the method and setting. Binding seen in cells or lysates may run through a third protein. Some results given as binding are weak or reduced against the parent protein; the word gives no strength.

Sequences of proteins named here, by UniProt entry; tags and fusion partners are left off. A change or cut given only in a name is not applied to a line headed by its entry. A line that says so, or that is headed by a name, gives the form on record, which may keep a tag or linker.
Total Tau (P10636, form named): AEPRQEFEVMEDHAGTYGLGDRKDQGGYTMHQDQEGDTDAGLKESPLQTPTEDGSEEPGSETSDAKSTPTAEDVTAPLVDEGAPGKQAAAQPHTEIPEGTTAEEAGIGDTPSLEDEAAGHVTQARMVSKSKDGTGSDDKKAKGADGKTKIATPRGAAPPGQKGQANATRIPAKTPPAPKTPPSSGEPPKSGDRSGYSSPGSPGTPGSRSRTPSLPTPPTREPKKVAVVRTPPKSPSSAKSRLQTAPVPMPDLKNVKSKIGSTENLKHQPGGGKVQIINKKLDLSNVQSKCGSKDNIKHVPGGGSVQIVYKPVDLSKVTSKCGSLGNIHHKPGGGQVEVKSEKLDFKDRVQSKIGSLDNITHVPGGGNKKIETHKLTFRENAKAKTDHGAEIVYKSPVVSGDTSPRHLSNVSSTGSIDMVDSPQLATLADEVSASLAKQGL

Target: Total Tau (human) (UniProt P10636)
Assay: immuno-depletion of AD brain P2 extract with the antibody and protein G beads; total tau left over measured by AlphaLISA (Tau5 / HT7 pair), given as % pull-down

B1: V1-AFM-hIgG4-S228P (antibody, V domains shown)
VH: EVQLVESGGGLVQPGGSLRLSCAASGFTFSSFALNWVRQAPGKGLEWVGHIRSKTNNYVTFYAASVKGRFTVSRDDSQNTAYLQMNSLKTEDTATYYCVRRGPRDSWFGYWGQGTLVTVSS
VL: DIVMTQSPLSLPVTLGEPASISCRSSHNIVHRNANTYLEWYLQKPGQSPQLLIYTVSNRFSGVPDRFSGSGSGTDFTLKISRVEAEDLGVYYCFQGSYLPLTFGGGTKVEIK
**Q.** Which binding does the source give for B1 here?
**A.** The binding was “binds”.
